According to US20100048692A1, “Naphthofuranone Derivatives as Specific Inhibitors of Thymidylate Synthases” (priority 2006, published 2010):
Some results were stated once for a whole list of compounds, not compound by compound.

Tested on: bacterial TS
Experiment: Enzymatic inhibition assay, summary for bacterial TS
Assay type: biochemical
Details: from Table 1

| SMILES | specificity of inhibition for bacterial TS |
| --- | --- |
| O=C1OC(c2ccc(O)c(F)c2)(c2ccc(O)c(F)c2)c2ccc3ccccc3c21 [Compound 8, 3,3-Bis-(3-fluorine-4-hydroxyphenyl)1H-naphtho(1,2-c)furan-3-one] | specific inhibitors for bacterial TS |
| O=C1OC(c2ccc(O)c(Cl)c2)(c2ccc(O)c(Cl)c2)c2ccc3ccccc3c21 [Compound 7, 3,3-Bis-(3-chlorine-4-hydroxyphenyl)1H-naphtho(1,2-c)furan-3-one] | specific inhibitors for bacterial TS |
